The supplement of paper PMC10849652
This is one part of the list.

Protein sequences, listed by entry. Tags and fused reporters are not part of them. Lines headed by an entry give the natural chain unless they say otherwise; changes in a name come on top.
UniProt Q9Y624, whole entry, looked up, stated change not applied: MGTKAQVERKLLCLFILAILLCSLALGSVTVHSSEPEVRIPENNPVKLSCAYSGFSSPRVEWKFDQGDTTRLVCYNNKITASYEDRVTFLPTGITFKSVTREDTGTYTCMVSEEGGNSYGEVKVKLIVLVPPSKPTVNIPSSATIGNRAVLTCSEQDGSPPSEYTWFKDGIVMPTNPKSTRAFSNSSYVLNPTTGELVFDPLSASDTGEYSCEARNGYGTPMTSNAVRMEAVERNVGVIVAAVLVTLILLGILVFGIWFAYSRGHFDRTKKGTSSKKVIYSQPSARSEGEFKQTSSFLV
UniProt Q9NRY5: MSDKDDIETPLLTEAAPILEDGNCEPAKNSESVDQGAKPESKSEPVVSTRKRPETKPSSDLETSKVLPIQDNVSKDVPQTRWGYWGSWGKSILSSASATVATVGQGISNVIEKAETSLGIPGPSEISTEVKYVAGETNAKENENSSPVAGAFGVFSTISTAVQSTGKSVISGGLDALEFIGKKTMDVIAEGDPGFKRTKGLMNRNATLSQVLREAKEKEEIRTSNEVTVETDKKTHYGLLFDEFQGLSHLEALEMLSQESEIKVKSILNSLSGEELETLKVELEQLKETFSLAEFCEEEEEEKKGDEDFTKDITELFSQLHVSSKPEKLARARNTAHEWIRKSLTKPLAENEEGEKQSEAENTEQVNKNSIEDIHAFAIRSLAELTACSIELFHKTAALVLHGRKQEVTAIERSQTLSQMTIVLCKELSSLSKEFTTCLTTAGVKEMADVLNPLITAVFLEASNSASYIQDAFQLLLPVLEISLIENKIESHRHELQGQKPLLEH
UniProt Q96A65: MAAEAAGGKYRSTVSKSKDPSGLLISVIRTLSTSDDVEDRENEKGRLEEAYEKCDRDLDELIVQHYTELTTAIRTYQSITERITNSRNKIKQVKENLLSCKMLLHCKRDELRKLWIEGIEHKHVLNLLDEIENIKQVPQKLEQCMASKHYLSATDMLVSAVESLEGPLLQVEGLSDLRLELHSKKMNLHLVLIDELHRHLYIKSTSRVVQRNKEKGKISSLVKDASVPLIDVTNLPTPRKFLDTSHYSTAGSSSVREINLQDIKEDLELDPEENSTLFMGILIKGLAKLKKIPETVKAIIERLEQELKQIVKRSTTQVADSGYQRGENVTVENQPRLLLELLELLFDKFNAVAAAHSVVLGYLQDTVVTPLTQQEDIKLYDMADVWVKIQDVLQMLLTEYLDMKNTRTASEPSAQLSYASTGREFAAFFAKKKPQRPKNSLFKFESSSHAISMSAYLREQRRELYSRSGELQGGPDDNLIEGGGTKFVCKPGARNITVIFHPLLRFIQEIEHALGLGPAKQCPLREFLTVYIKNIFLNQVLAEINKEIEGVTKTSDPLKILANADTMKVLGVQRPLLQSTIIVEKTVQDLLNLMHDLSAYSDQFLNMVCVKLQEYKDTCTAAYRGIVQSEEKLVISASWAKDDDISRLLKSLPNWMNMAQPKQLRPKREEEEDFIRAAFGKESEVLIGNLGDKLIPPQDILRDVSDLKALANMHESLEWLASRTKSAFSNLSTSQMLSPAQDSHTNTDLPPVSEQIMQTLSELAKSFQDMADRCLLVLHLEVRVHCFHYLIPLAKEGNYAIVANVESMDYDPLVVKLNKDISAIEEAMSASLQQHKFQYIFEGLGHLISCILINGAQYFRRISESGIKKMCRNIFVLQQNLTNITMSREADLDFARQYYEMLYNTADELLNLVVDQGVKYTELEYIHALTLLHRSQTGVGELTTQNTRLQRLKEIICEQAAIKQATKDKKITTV
UniProt Q96RT1: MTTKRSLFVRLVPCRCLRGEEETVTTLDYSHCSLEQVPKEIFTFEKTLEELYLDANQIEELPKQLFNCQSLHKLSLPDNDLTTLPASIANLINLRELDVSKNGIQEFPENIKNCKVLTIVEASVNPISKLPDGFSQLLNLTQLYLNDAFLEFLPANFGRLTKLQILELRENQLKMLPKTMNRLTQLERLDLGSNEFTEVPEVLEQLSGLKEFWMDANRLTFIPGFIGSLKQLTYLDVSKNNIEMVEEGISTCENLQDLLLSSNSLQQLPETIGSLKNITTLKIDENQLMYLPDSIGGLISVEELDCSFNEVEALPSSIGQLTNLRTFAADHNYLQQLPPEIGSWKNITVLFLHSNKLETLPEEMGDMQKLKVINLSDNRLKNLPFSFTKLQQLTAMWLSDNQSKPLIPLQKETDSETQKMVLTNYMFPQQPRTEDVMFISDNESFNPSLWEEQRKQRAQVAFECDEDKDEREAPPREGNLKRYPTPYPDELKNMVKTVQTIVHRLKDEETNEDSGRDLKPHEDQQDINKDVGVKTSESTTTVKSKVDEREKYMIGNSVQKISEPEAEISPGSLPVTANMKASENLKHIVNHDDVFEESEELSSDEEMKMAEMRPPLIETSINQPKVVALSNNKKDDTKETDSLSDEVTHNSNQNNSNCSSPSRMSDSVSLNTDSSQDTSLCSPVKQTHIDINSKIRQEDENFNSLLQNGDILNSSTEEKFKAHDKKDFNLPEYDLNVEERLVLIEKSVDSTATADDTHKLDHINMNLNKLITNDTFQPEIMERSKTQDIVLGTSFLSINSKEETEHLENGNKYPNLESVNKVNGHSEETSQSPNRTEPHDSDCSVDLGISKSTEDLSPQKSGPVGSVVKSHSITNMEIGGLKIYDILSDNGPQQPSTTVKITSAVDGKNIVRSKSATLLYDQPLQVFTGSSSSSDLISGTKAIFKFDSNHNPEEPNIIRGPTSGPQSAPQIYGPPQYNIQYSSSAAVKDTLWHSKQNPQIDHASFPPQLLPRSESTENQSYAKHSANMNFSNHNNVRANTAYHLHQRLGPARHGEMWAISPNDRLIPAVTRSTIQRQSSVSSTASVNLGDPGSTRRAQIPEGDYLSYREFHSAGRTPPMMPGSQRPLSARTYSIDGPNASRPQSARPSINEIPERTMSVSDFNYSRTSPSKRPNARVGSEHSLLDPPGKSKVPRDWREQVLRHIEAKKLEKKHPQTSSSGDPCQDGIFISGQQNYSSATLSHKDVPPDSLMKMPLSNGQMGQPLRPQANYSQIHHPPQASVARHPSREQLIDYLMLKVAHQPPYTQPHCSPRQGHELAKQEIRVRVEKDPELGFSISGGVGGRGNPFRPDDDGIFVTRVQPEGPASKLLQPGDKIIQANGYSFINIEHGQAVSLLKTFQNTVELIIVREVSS
UniProt Q6P587: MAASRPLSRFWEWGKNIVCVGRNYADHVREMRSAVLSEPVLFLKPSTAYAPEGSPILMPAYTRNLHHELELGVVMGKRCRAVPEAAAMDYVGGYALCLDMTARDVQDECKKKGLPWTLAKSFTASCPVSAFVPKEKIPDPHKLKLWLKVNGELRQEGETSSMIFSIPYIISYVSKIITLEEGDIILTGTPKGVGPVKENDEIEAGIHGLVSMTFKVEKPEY
UniProt Q06265, whole entry, looked up: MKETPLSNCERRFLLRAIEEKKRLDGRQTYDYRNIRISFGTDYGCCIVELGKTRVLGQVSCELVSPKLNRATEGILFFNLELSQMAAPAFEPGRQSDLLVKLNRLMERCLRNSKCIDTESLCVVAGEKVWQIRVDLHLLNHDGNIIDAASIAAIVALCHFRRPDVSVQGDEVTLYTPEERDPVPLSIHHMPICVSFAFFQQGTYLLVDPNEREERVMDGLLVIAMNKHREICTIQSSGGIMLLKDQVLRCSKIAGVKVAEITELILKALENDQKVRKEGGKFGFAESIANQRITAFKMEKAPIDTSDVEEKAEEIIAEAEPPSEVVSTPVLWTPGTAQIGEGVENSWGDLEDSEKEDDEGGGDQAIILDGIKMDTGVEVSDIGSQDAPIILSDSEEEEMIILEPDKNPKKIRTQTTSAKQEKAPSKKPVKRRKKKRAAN
UniProt Q6IPR1: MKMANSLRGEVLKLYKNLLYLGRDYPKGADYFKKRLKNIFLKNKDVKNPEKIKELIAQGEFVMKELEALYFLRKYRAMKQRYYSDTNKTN
UniProt Q7L775: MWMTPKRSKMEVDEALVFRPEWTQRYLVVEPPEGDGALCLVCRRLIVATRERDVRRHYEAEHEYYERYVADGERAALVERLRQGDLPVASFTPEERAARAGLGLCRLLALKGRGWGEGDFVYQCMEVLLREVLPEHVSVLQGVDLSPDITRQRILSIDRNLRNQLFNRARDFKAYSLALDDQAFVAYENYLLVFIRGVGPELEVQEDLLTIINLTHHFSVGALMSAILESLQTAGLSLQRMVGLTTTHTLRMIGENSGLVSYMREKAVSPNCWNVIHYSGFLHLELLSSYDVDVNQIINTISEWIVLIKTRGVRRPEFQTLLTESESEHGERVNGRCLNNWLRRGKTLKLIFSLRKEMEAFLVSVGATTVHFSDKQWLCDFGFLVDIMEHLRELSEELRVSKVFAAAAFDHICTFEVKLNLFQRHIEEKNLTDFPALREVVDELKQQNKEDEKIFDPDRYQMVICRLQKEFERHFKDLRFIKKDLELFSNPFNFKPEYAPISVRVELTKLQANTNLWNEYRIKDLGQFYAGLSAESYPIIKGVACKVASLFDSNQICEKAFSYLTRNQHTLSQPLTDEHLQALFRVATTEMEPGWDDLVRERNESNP
UniProt Q9BPY3: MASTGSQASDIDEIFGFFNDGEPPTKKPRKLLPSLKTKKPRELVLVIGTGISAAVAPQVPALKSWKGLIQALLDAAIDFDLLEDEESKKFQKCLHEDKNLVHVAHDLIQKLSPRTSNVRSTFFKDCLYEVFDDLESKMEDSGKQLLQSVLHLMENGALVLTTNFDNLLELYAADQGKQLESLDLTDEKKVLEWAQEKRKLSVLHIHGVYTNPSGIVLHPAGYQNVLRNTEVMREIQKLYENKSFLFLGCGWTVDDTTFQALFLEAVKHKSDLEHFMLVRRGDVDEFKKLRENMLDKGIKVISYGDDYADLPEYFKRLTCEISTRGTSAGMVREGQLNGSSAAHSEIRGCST
UniProt Q7Z2K6: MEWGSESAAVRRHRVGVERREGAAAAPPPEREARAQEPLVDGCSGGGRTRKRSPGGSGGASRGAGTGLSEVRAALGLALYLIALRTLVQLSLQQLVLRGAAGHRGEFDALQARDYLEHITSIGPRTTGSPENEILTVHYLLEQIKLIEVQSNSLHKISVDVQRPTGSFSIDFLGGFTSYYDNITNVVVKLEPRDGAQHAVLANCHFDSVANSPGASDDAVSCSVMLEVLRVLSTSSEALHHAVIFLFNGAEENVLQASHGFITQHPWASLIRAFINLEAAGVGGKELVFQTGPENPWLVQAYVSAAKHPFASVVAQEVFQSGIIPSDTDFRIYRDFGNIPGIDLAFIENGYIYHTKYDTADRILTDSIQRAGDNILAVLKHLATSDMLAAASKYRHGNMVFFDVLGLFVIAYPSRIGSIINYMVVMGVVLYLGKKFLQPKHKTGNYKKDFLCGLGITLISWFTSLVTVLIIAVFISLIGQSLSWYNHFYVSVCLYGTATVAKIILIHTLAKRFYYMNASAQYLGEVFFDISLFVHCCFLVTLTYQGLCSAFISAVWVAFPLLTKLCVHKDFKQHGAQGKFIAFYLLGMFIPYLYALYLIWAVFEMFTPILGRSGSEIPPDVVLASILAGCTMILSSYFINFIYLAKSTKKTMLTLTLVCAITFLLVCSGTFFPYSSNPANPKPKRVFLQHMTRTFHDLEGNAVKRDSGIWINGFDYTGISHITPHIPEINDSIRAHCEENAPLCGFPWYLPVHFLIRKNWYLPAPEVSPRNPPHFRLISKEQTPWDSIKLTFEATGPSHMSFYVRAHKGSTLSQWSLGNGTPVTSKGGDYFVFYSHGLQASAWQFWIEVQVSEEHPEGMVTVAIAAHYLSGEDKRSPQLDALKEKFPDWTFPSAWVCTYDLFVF
UniProt Q9UPT5: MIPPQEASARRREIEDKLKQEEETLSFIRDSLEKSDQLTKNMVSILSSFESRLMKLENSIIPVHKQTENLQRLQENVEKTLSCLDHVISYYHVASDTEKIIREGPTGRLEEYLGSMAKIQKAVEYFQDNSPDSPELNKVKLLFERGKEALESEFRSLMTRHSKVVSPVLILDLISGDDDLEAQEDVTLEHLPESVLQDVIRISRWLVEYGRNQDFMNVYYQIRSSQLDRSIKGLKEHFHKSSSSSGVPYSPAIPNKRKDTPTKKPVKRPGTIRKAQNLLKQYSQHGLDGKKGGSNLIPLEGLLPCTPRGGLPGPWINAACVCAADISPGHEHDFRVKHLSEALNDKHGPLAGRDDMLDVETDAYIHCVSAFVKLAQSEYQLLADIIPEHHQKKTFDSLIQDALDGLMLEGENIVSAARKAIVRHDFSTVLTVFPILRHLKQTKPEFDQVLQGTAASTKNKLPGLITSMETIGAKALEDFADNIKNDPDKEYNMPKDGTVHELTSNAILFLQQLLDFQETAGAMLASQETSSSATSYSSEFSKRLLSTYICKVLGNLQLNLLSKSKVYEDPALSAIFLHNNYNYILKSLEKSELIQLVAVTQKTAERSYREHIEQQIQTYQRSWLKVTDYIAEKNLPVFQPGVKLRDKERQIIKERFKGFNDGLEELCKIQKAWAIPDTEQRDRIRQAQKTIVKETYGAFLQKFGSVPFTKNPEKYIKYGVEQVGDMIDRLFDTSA

Columns and labels:
Experiment in all cases: log2 fold change, soluble protein after heating vs DMSO (PISA); higher = thermal stabilisation; K562 cells, 10 uM, 30 min; active = over 0.2 and 3.5 SD of the protein, either way, in both replicates (recomputed)
[1] = compound: NC(=O)Nc1cc(-c2cccc(F)c2)sc1C(=O)N[C@H]1CCCNC1
Summary of the method: (§1)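 K562 cells at 2×10^6 cells/mL were treated for 30 min with 10 μM compound, and aliquots were heated for 3 min over 48°C-58°C before pooling. Extraction used PBS with 0.5% NP-40 at 4°C, and soluble protein was the supernatant after 21,000xg for 90 min, measured by TMTpro 16plex LC-MS/MS with channel sums equalised. Thermal stability values, relative to control samples and from duplicates, are log2 fold changes.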

[2] = compound: NC(=O)c1cnc(N[C@@H]2CCCC[C@@H]2N)nc1Nc1cccc(-n2nccn2)c1
Summary of the method: as §1

[3] = compound: NC1(c2ccc(-c3nc4ccn5c(=O)[nH]nc5c4cc3-c3ccccc3)cc2)CCC1
Summary of the method: as §1

[4] = compound: NCC(=O)Nc1ccc(-n2nc(C(F)(F)F)cc2-c2ccc3c(ccc4ccccc43)c2)cc1
Summary of the method: as §1

[5] = compound: Nc1ccccc1NC(=O)c1ccc(CNC(=O)OCc2cccnc2)cc1 [entinostat]
Summary of the method: as §1

[6] = compound: O=C(CCCCCCC(=O)Nc1ccccc1)NO [vorinostat]
Summary of the method: as §1

[7] = compound: O=C(CCCCCCNC(=O)c1cnc(N(c2ccccc2)c2ccccc2Cl)nc1)NO [citarinostat]
Summary of the method: as §1

[8] = compound: O=C(O)c1ccc2c(c1)nc(Nc1cccc(Cl)c1)c1ccncc12 [silmitasertib]
Summary of the method: as §1

[9] = compound: O=C1NC(=O)C(c2cnc3ccccn23)=C1c1cn2c3c(cc(F)cc13)CN(C(=O)N1CCCCC1)CC2
Summary of the method: as §1

[10] = compound: c1cc(OCCN2CCCCC2)cc(-c2n[nH]c3ccc(-c4nnc[nH]4)cc23)c1
Summary of the method: as §1

| Target | log2 fold change [1] | log2 fold change [2] | log2 fold change [3] | log2 fold change [4] | log2 fold change [5] | log2 fold change [6] | log2 fold change [7] | log2 fold change [8] | log2 fold change [9] | log2 fold change [10] |
| --- | --- | --- | --- | --- | --- | --- | --- | --- | --- | --- |
| ERVK3-1, A0A0U1RQV1 | inactive: 0.013 | inactive: 0.016 | inactive: -0.019 | inactive: 0.033 | inactive: 0.124 | inactive: -0.079 | inactive: 0.055 | inactive: 0.009 | inactive: -0.194 | inactive: -0.034 |
| FAHD2A (UniProt Q96GK7) | inactive: -0.025 | inactive: 0.003 | inactive: 0.016 | inactive: 0.009 | inactive: -0.031 | inactive: 0.034 | inactive: 0.034 | inactive: -0.016 | inactive: -0.03 | inactive: -0.05 |
| F11R (UniProt Q9Y624) | inactive: -0.137 | inactive: 0.046 | inactive: 0.045 | inactive: 0.021 | inactive: -0.075 | inactive: -0.013 | inactive: 0.013 | inactive: -0.025 | inactive: -0.076 | inactive: -0.059 |
| FADS1, A0A0A0MR51 | inactive: -0.041 | inactive: -0.036 | inactive: -0.074 | inactive: 0.036 | inactive: -0.002 | inactive: -0.105 | inactive: -0.029 | inactive: 0.014 | inactive: -0.15 | inactive: -0.029 |
| ERP44 (UniProt Q9BS26) | inactive: -0.015 | inactive: -0.026 | inactive: -0.015 | inactive: -0.034 | inactive: -0.017 | inactive: -0.014 | inactive: -0.002 | inactive: 0.046 | inactive: -0.024 | inactive: -0.009 |
| ERCC2 (UniProt P18074) | inactive: -0.015 | inactive: -0.011 | inactive: -0.109 | inactive: 0.004 | inactive: 0.014 | inactive: 0.045 | inactive: 0.103 | inactive: -0.052 | inactive: -0.092 | inactive: -0.039 |
| FAM114A2 (UniProt Q9NRY5) | inactive: 0.023 | inactive: -0.089 | inactive: -0.151 | inactive: -0.062 | inactive: 0.051 | inactive: 0.034 | inactive: 0.05 | inactive: 0.02 | inactive: -0.016 | inactive: -0.013 |
| FAM177A1 isoform 2 (UniProt Q8N128) | inactive: 0.047 | inactive: -0.053 | inactive: -0.023 | inactive: -0.038 | inactive: 0.007 | inactive: 0.072 | inactive: 0.047 | inactive: 0.029 | inactive: -0.089 | inactive: 0.002 |
| EXOC4 (UniProt Q96A65) | inactive: 0.081 | inactive: -0.216 | inactive: -0.205 | inactive: -0.051 | inactive: 0.078 | inactive: 0.174 | inactive: 0.16 | inactive: 0.091 | inactive: 0.044 | inactive: -0.094 |
| ERO1A (UniProt Q96HE7) | inactive: 0 | inactive: -0.037 | inactive: -0.051 | inactive: -0.031 | inactive: 0.013 | inactive: -0.035 | inactive: -0.011 | inactive: 0.015 | inactive: -0.017 | inactive: -0.021 |
| ERBIN isoform 8 (UniProt Q96RT1) | inactive: -0.043 | inactive: 0.022 | inactive: -0.086 | inactive: -0.055 | inactive: 0.111 | inactive: 0.173 | inactive: -0.007 | inactive: -0.037 | inactive: -0.121 | inactive: -0.033 |
| ERGIC3 isoform 3 (UniProt Q9Y282) | inactive: 0.026 | inactive: -0.007 | inactive: -0.067 | inactive: 0.049 | inactive: 0.041 | inactive: 0.005 | inactive: 0.038 | inactive: 0.007 | inactive: -0.02 | inactive: -0.043 |
| FAM192A (UniProt Q9GZU8) | inactive: -0.018 | inactive: -0.054 | inactive: 0.051 | inactive: 0.018 | inactive: -0.038 | inactive: -0.074 | inactive: -0.023 | inactive: 0.006 | inactive: -0.028 | inactive: 0.01 |
| FAHD1 (UniProt Q6P587) | inactive: -0.008 | inactive: -0.006 | inactive: 0 | inactive: 0.026 | inactive: -0.043 | inactive: -0.044 | inactive: 0.031 | inactive: 0.028 | inactive: -0.076 | inactive: 0.008 |
| EXOSC9 isoform 2 (UniProt Q06265) | inactive: -0.089 | inactive: 0.025 | inactive: 0.011 | inactive: 0.02 | inactive: -0.074 | inactive: -0.039 | inactive: -0.002 | inactive: 0.125 | inactive: 0.044 | inactive: -0.052 |
| ERO1B (UniProt Q86YB8) | inactive: 0 | inactive: -0.095 | inactive: -0.138 | inactive: -0.072 | inactive: 0.029 | – | inactive: 0.071 | inactive: -0.002 | inactive: 0.016 | inactive: 0.057 |
| ETFRF1 (UniProt Q6IPR1) | inactive: -0.017 | inactive: 0.18 | inactive: 0.054 | inactive: -0.003 | inactive: -0.087 | inactive: -0.116 | – | inactive: -0.02 | inactive: -0.034 | – |
| EPM2AIP1 (UniProt Q7L775) | inactive: -0.044 | inactive: -0.069 | inactive: -0.064 | inactive: -0.03 | inactive: 0.005 | inactive: 0.009 | inactive: 0.017 | inactive: 0.012 | inactive: -0.069 | inactive: -0.003 |
| EPCAM (UniProt P16422) | inactive: -0.072 | inactive: 0.067 | inactive: -0.107 | inactive: 0.032 | inactive: -0.016 | inactive: 0.066 | inactive: 0.061 | inactive: -0.066 | inactive: -0.008 | inactive: -0.039 |
| FAM118B (UniProt Q9BPY3) | inactive: -0.034 | inactive: -0.118 | active: -0.381 | inactive: -0.027 | inactive: 0.047 | inactive: 0.064 | inactive: 0.052 | inactive: -0.082 | inactive: -0.13 | inactive: -0.078 |
| ERMP1 (UniProt Q7Z2K6) | inactive: -0.003 | inactive: 0.028 | inactive: -0.036 | inactive: -0.026 | inactive: -0.041 | inactive: -0.032 | inactive: 0.007 | inactive: 0.001 | inactive: -0.007 | inactive: 0.005 |
| EXOSC3 (UniProt Q9NQT5) | inactive: 0.035 | inactive: -0.018 | inactive: -0.054 | inactive: -0.03 | inactive: -0.024 | inactive: 0.008 | inactive: 0.044 | inactive: 0.007 | inactive: 0 | inactive: -0.033 |
| EXOC5 (UniProt O00471) | inactive: 0.01 | inactive: -0.101 | inactive: -0.222 | inactive: -0.063 | inactive: 0.069 | inactive: 0.086 | inactive: 0.027 | inactive: 0.042 | inactive: -0.02 | inactive: -0.153 |
| EXTL2 (UniProt Q9UBQ6) | inactive: -0.051 | inactive: -0.033 | inactive: -0.018 | inactive: 0.039 | inactive: -0.01 | inactive: 0.019 | inactive: -0.044 | inactive: -0.011 | inactive: 0.003 | inactive: -0.223 |
| ETFDH (UniProt Q16134) | inactive: 0.026 | inactive: -0.06 | inactive: -0.069 | inactive: -0.06 | inactive: -0.002 | inactive: 0.017 | inactive: 0.026 | inactive: -0.011 | inactive: -0.081 | inactive: -0.046 |
| EXOC7 (UniProt Q9UPT5) | inactive: 0.009 | inactive: -0.142 | inactive: -0.223 | inactive: -0.022 | inactive: 0.04 | inactive: 0.09 | inactive: 0.077 | inactive: 0.052 | inactive: 0.028 | inactive: -0.012 |

Two records picked at random from the list so far:

| Target | log2 fold change [1] | log2 fold change [2] | log2 fold change [3] | log2 fold change [4] | log2 fold change [5] | log2 fold change [6] | log2 fold change [7] | log2 fold change [8] | log2 fold change [9] | log2 fold change [10] |
| --- | --- | --- | --- | --- | --- | --- | --- | --- | --- | --- |
| EXOC7 (UniProt Q9UPT5) | inactive: 0.009 | inactive: -0.142 | inactive: -0.223 | inactive: -0.022 | inactive: 0.04 | inactive: 0.09 | inactive: 0.077 | inactive: 0.052 | inactive: 0.028 | inactive: -0.012 |
| ERO1A (UniProt Q96HE7) | inactive: 0 | inactive: -0.037 | inactive: -0.051 | inactive: -0.031 | inactive: 0.013 | inactive: -0.035 | inactive: -0.011 | inactive: 0.015 | inactive: -0.017 | inactive: -0.021 |
